The exact form of at least one protein or probe is not confirmed. At least one verdict was read from the data and is not stated in words by the source.
Test system: His-CsPHL7 (Camellia sinensis)
Test: EMSA
Settings: LightShift chemiluminescent EMSA kit (Thermo), pH and temperature not stated, recombinant protein, protein details: His (N-terminal)

Sequence	binding result (label: biotin)	binding result (label: 5' biotin on both strands)
AATCATGACATTGATATTCCCAAAAAATG (double strand) [TS1-Probe-2]	binds	–
TAACTCTAACTCATTATTCTTGAAACCTC (double strand) [TS1-Probe-4]	binds	–
CTACCAAAAAAAGTTAGATTCCCCAAAAG (double strand) [TS1-Probe-3]	binds	–
AATTAACCTTATCATATTCATAACCTAAG (double strand) [TS1-Probe-1]	binds	–
TATGAAAGAATATATCATCCATACT (double strand) [GS1-Probe]	–	binds

From article PMC11554760
